Measurements: article doi:10.1101/2021.08.27.457962
Results are given in words; binding and its absence hold for the method and conditions named. For part of these data: Binding seen in cells or lysates may run through a third protein. Some binding calls cover weakened binding; strength is not graded here. For part of these data: Sequences can lack the tags named with a protein.

Sequences of proteins named here, by UniProt entry; tags and fusion partners are left off. A change or cut given only in a name is not applied to a line headed by its entry. A line that says so, or that is headed by a name, gives the form on record, which may keep a tag or linker. Residues count along the entry.
UniProt P21333: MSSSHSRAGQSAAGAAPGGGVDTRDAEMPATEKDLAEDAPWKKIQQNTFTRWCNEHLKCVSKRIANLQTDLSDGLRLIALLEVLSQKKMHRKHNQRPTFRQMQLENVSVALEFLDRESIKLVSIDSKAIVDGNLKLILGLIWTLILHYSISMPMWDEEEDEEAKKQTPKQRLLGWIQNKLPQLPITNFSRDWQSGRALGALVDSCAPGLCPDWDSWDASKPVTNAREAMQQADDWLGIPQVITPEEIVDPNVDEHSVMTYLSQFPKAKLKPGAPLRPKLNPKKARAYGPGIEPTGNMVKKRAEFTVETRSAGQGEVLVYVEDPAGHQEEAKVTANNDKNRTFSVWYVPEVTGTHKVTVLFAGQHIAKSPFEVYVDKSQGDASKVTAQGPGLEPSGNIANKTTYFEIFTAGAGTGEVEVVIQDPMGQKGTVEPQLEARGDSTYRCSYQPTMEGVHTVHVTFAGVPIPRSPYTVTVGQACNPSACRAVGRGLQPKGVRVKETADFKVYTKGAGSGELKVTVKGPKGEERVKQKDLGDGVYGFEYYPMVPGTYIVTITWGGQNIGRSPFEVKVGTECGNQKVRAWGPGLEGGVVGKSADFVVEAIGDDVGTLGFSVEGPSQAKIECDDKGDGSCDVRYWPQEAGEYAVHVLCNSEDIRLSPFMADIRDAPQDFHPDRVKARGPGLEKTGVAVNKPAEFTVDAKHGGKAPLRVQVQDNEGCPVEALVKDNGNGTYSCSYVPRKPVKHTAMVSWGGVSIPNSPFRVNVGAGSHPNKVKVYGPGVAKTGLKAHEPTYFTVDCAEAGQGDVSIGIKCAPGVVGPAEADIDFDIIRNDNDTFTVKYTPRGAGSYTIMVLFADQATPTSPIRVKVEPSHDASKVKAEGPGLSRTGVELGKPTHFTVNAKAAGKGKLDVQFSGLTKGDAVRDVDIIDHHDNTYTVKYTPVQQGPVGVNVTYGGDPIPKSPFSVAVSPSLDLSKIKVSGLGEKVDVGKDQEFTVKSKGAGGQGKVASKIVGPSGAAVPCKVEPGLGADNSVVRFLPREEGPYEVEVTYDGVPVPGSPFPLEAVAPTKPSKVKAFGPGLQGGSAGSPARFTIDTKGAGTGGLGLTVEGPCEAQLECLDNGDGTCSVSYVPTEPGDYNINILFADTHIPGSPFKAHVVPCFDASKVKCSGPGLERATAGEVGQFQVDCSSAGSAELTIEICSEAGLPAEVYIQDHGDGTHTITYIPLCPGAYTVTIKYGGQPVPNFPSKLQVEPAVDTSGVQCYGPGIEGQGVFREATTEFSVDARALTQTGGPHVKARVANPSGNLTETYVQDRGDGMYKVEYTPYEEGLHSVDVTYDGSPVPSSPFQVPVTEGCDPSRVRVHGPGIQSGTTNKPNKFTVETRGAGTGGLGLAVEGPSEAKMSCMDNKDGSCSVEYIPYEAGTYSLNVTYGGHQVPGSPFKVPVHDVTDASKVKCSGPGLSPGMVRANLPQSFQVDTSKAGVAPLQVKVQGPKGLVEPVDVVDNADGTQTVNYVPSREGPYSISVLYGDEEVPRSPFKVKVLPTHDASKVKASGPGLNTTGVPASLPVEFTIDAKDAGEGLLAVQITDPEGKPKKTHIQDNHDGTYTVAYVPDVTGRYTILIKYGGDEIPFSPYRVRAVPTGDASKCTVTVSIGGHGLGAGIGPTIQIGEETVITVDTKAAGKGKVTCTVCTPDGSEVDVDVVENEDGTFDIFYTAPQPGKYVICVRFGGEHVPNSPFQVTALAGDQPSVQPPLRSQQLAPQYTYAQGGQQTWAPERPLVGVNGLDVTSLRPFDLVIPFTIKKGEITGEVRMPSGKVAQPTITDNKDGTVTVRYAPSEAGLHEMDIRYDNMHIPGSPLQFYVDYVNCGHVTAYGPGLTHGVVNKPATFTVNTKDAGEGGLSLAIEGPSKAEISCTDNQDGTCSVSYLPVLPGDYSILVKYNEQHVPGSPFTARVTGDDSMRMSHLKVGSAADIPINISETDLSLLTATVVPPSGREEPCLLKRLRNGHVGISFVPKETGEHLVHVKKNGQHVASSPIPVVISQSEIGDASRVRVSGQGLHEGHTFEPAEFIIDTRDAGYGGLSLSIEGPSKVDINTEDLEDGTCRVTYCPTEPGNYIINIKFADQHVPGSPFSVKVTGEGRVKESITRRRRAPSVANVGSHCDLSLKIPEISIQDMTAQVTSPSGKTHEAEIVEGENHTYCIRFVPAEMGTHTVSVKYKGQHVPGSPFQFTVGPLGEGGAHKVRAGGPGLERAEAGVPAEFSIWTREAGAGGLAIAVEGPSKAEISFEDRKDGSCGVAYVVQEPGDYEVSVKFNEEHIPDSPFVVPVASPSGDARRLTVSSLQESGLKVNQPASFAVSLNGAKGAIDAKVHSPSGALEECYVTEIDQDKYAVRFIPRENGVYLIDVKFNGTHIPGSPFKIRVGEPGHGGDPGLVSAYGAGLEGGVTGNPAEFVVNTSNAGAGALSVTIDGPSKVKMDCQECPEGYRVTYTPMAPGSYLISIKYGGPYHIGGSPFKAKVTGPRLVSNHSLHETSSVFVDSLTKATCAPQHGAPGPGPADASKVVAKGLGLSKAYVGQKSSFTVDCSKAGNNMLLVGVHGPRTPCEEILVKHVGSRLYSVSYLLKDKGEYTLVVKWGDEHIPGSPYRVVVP
GST-tagged filamin A C-terminal tail (amino acids 2264-2648): residues 2264-2647 of P21333
UniProt Q02248: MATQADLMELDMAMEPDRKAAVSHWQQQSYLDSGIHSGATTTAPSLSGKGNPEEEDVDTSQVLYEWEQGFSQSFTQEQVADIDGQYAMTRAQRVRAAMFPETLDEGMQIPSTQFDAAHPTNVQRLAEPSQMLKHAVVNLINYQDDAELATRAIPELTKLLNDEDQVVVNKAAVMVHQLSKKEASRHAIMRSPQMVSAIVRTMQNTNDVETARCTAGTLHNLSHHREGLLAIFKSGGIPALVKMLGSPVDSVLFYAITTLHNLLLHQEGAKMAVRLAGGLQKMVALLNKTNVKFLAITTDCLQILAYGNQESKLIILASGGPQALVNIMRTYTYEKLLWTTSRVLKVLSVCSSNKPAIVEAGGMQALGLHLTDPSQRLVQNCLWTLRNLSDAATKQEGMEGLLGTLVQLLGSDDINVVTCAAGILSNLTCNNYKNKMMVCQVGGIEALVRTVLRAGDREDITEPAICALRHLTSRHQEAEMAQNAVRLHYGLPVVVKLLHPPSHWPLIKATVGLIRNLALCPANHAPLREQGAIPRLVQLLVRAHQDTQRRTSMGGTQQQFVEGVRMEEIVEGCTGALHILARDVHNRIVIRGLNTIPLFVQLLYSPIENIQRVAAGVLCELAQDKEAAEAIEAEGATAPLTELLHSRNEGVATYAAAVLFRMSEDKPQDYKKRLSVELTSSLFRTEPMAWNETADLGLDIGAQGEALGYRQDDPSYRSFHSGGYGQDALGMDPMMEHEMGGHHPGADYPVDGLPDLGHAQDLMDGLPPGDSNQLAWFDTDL
GST-tagged β-catenin C-terminal tail (amino acids 734-782): residues 734-781 of Q02248
UniProt P08100: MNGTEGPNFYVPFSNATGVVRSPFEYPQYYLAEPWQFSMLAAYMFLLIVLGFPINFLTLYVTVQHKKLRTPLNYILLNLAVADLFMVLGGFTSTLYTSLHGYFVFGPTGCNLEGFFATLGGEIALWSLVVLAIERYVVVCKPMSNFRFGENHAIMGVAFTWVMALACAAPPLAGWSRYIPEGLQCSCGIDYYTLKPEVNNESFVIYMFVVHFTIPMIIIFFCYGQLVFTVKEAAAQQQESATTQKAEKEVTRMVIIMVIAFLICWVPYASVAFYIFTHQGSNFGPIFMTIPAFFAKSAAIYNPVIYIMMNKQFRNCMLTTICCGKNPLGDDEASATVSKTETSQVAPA

Columns and labels:
[1] = target: GST-tagged JAM-B C-terminal tail (amino acids 257-299) (mouse) (UniProt Q9JI59); assay: pull-down
[2] = target: GST-tagged filamin A C-terminal tail (amino acids 2264-2648) (UniProt P21333); assay: pull-down
[3] = target: GST-tagged β-catenin C-terminal tail (amino acids 734-782) (mouse) (UniProt Q02248); assay: pull-down
GFP-rhodopsin (human) = GFP-rhodopsin (human) (UniProt P08100); assay: co-IP
[4] = target: rhodopsin, endogenous in human retina (human (endogenous in retina)) (UniProt P08100); assay: proximity ligation
JAM-B (yeast two-hybrid) = target: T1, JAM-B (yeast two-hybrid) (UniProt Q9JI59); assay: two-hybrid
T1 sequence: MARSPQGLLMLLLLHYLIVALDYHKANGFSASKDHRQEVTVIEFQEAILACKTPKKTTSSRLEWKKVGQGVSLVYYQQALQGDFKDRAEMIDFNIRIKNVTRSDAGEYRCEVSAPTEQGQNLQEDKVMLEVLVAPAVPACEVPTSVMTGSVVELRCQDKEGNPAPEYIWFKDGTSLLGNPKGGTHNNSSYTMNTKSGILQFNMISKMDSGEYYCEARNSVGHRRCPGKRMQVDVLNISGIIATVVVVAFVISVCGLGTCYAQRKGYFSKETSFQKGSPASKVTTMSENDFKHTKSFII

[5] = target: filamin A (yeast two-hybrid) (UniProt P21333); assay: two-hybrid
[6] = target: β-catenin (yeast two-hybrid) (UniProt Q02248); assay: two-hybrid

B1: His-tagged harmonin_a1 (protein, UniProt Q9Y6N9-1 1-552)
chain: MDRKVAREFRHKVDFLIENDAEKDYLYDVLRMYHQTMDVAVLVGDLKLVINEPSRLPLFDAIRPLIPLKHQVEYDQLTPRRSRKLKEVRLDRLHPEGLGLSVRGGLEFGCGLFISHLIKGGQADSVGLQVGDEIVRINGYSISSCTHEEVINLIRTKKTVSIKVRHIGLIPVKSSPDEPLTWQYVDQFVSESGGVRGSLGSPGNRENKEKKVFISLVGSRGLGCSISSGPIQKPGIFISHVKPGSLSAEVGLEIGDQIVEVNGVDFSNLDHKEAVNVLKSSRSLTISIVAAAGRELFMTDRERLAEARQRELQRQELLMQKRLAMESNKILQEQQEMERQRRKEIAQKAAEENERYRKEMEQIVEEEEKFKKQWEEDWGSKEQLLLPKTITAEVHPVPLRKPKYDQGVEPELEPADDLDGGTEEQGEQDFRKYEEGFDPYSMFTPEQIMGKDVRLLRIKKEGSLDLALEGGVDSPIGKVVVSAVYERGAAERHGGIVKGDEIMAINGKIVTDYTLAEAEAALQKAWNQGGDWIDLVVAVCPPKEYDDELTFF
With B1 the binding [1] was “binds”, the binding [2] was “binds” and the binding [3] was “binds”.

B2: harmonin_a1-HA (protein, UniProt Q9Y6N9-1 1-552)
chain: MDRKVAREFRHKVDFLIENDAEKDYLYDVLRMYHQTMDVAVLVGDLKLVINEPSRLPLFDAIRPLIPLKHQVEYDQLTPRRSRKLKEVRLDRLHPEGLGLSVRGGLEFGCGLFISHLIKGGQADSVGLQVGDEIVRINGYSISSCTHEEVINLIRTKKTVSIKVRHIGLIPVKSSPDEPLTWQYVDQFVSESGGVRGSLGSPGNRENKEKKVFISLVGSRGLGCSISSGPIQKPGIFISHVKPGSLSAEVGLEIGDQIVEVNGVDFSNLDHKEAVNVLKSSRSLTISIVAAAGRELFMTDRERLAEARQRELQRQELLMQKRLAMESNKILQEQQEMERQRRKEIAQKAAEENERYRKEMEQIVEEEEKFKKQWEEDWGSKEQLLLPKTITAEVHPVPLRKPKYDQGVEPELEPADDLDGGTEEQGEQDFRKYEEGFDPYSMFTPEQIMGKDVRLLRIKKEGSLDLALEGGVDSPIGKVVVSAVYERGAAERHGGIVKGDEIMAINGKIVTDYTLAEAEAALQKAWNQGGDWIDLVVAVCPPKEYDDELTFF
For B2, the binding (GFP-rhodopsin (human)) was “binds”.

B3: harmonin, endogenous in human retina (protein, UniProt Q9Y6N9 1-552)
chain: MDRKVAREFRHKVDFLIENDAEKDYLYDVLRMYHQTMDVAVLVGDLKLVINEPSRLPLFDAIRPLIPLKHQVEYDQLTPRRSRKLKEVRLDRLHPEGLGLSVRGGLEFGCGLFISHLIKGGQADSVGLQVGDEIVRINGYSISSCTHEEVINLIRTKKTVSIKVRHIGLIPVKSSPDEPLTWQYVDQFVSESGGVRGSLGSPGNRENKEKKVFISLVGSRGLGCSISSGPIQKPGIFISHVKPGSLSAEVGLEIGDQIVEVNGVDFSNLDHKEAVNVLKSSRSLTISIVAAAGRELFMTDRERLAEARQRELQRQELLMQKRLAMESNKILQEQQEMERQRRKEIAQKAAEENERYRKEMEQIVEEEEKFKKQWEEDWGSKEQLLLPKTITAEVHPVPLRKPKYDQGVEPELEPADDLDGGTEEQGEQDFRKYEEGFDPYSMFTPEQIMGKDVRLLRIKKEGSLDLALEGGVDSPIGKVVVSAVYERGAAERHGGIVKGDEIMAINGKIVTDYTLAEAEAALQKAWNQGGDWIDLVVAVCPPKEYDDELTFF
In the case of B3, the binding [4] is reported as “binds”.

B4: RFP-harmonin a1 (protein, UniProt Q9Y6N9-1 1-552)
chain: MDRKVAREFRHKVDFLIENDAEKDYLYDVLRMYHQTMDVAVLVGDLKLVINEPSRLPLFDAIRPLIPLKHQVEYDQLTPRRSRKLKEVRLDRLHPEGLGLSVRGGLEFGCGLFISHLIKGGQADSVGLQVGDEIVRINGYSISSCTHEEVINLIRTKKTVSIKVRHIGLIPVKSSPDEPLTWQYVDQFVSESGGVRGSLGSPGNRENKEKKVFISLVGSRGLGCSISSGPIQKPGIFISHVKPGSLSAEVGLEIGDQIVEVNGVDFSNLDHKEAVNVLKSSRSLTISIVAAAGRELFMTDRERLAEARQRELQRQELLMQKRLAMESNKILQEQQEMERQRRKEIAQKAAEENERYRKEMEQIVEEEEKFKKQWEEDWGSKEQLLLPKTITAEVHPVPLRKPKYDQGVEPELEPADDLDGGTEEQGEQDFRKYEEGFDPYSMFTPEQIMGKDVRLLRIKKEGSLDLALEGGVDSPIGKVVVSAVYERGAAERHGGIVKGDEIMAINGKIVTDYTLAEAEAALQKAWNQGGDWIDLVVAVCPPKEYDDELTFF
With B4 the binding (GFP-rhodopsin (human)) was “binds”.

B5: harmonin (yeast two-hybrid) (protein, UniProt Q9Y6N9 1-552)
chain: MDRKVAREFRHKVDFLIENDAEKDYLYDVLRMYHQTMDVAVLVGDLKLVINEPSRLPLFDAIRPLIPLKHQVEYDQLTPRRSRKLKEVRLDRLHPEGLGLSVRGGLEFGCGLFISHLIKGGQADSVGLQVGDEIVRINGYSISSCTHEEVINLIRTKKTVSIKVRHIGLIPVKSSPDEPLTWQYVDQFVSESGGVRGSLGSPGNRENKEKKVFISLVGSRGLGCSISSGPIQKPGIFISHVKPGSLSAEVGLEIGDQIVEVNGVDFSNLDHKEAVNVLKSSRSLTISIVAAAGRELFMTDRERLAEARQRELQRQELLMQKRLAMESNKILQEQQEMERQRRKEIAQKAAEENERYRKEMEQIVEEEEKFKKQWEEDWGSKEQLLLPKTITAEVHPVPLRKPKYDQGVEPELEPADDLDGGTEEQGEQDFRKYEEGFDPYSMFTPEQIMGKDVRLLRIKKEGSLDLALEGGVDSPIGKVVVSAVYERGAAERHGGIVKGDEIMAINGKIVTDYTLAEAEAALQKAWNQGGDWIDLVVAVCPPKEYDDELTFF
In the case of B5, the binding (JAM-B (yeast two-hybrid)) is reported as “binds”, the binding [5] is reported as “binds” and the binding [6] is reported as “binds”.
